At least one structure is not confirmed: it was looked up by name or label, or the drawing left a doubt.
System: MDX107 Mini-PDX models (conditional reprogramming cells from a glioblastoma patient)
Test: Anti-tumor efficacy in MDX107 Mini-PDX model
Assay type: in vivo, human
Conditions: Mini-PDX devices s.c. in nude mice, CTG cell viability day 7, 50 mg/kg p.o. qd*5

## Cn1nnc2c(C(N)=O)ncn2c1=O [Temozolomide]
  anti-tumor activity: no anti-tumor activity
